Reference: PubChem BioAssay AID1487 (National Center for Advancing Translational Sciences (NCATS), 2009)
This is one part of the list. Shown are side measurements of this screen, not its main read-out; they come without a call. Most of these compounds were active or inconclusive in the main read-out, so they are no random draw. Potencies come from curve fits of mixed quality, noted in brackets.

Test: qHTS Assay for Modulators of Lamin A Splicing
Settings: HeLa LMNA splicing GFP/RFP minigene ratio, 48 h
Outline: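 S3 HeLa stable clones carrying a lamin A-EGFP splicing minigene plus DsRed2 were seeded at 600 cells/well in Opti-MEM with 2% FBS, pin-dosed and incubated 48 h at 37°C. Acumen cytometry (488 nm) gave the GFP/RFP total-intensity ratio.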

[1] = measured here: RFP viability control channel
[2] = measured here: GFP splicing reporter channel

Compound | AC50 [1] | AC50 [2]
COc1ccc(N2CCN(C(=O)c3ccc(NS(=O)(=O)c4ccccc4)cc3)CC2)cc1 | 22.4 µM [rising, single point] | –
O=C(N/N=C/c1ccccn1)c1cccc([N+](=O)[O-])c1 | 35.5 µM [rising, partial curve, poor fit] | –
Cc1ccc(NC(=O)CSc2nc3ccccc3nc2Cc2ccccc2)c(C)c1 | 10 µM [rising, partial curve, poor fit] | 0.0224 µM [rising, full curve, poor fit]
Cc1cc(C(=O)COc2ncnc3sccc23)c(C)n1C1CC1 | 15.8 µM [falling, partial curve, poor fit] | 12.6 µM [falling, partial curve, poor fit]
Cc1cc(NCCCN(C)C)n2nc(-c3cccs3)cc2n1 | 11.2 µM [rising, partial curve] | –
Cc1ccc(CCNC(=O)Cn2ncc3c([nH]c4ccc(C)cc43)c2=O)cc1 | 0.02 µM [falling, full curve, poor fit] | 0.0316 µM [falling, full curve, poor fit]
O=C(N/N=C/c1ccccn1)c1ccc(Br)cc1 | 31.6 µM [rising, single point] | 31.6 µM [rising, single point]
CN(C)CCN(Cc1cc2cc3c(cc2[nH]c1=O)OCO3)C(=S)NCc1ccco1 | 0.0112 µM [falling, full curve, poor fit] | 0.0251 µM [falling, full curve, poor fit]
CN(C)S(=O)(=O)c1ccc(Nc2nc(C3CC3)nc3c2nnn3Cc2ccccc2Cl)cc1 | 2.51 µM [rising, full curve] | –
Cc1csc(NC(=O)CSc2nnc3ncccn23)n1 | 5.62 µM [rising, partial curve] | 0.02 µM [rising, full curve, poor fit]
CN(C)S(=O)(=O)c1ccc(C(=O)Nc2cc(S(=O)(=O)Nc3ccccc3Cl)ccc2N2CCCCC2)cc1 | 11.2 µM [rising, partial curve] | –
Cc1ccc(C(=O)C(=S)N2CCOCC2)cc1 | 0.00224 µM [rising, full curve, poor fit] | 0.02 µM [rising, full curve]
CCCc1[nH]n(-c2ccc(F)cc2)c(=O)c1C=Nc1cccc(F)c1 | 5.62 µM [falling, single point] | –
COc1cccc(C2C=C(c3ccc(OC)cc3OC)Nc3nnnn32)c1 (stereo not drawn) | 12.6 µM [rising, partial curve] | –
O=C(c1cccs1)N(CC1CCCO1)c1nc(-c2ccccc2)cs1 (stereo not drawn) | 12.6 µM [rising, partial curve] | 11.2 µM [rising, partial curve]
O=C(N/N=C/c1ccc(Sc2ccccn2)o1)c1cccc([N+](=O)[O-])c1 | 10 µM [rising, single point] | 14.1 µM [rising, single point]
CC1(C)Cc2cccc(C(=O)NCc3ccco3)c2O1 | 35.5 µM [falling, partial curve, poor fit] | –

Compound | AC50 [1] | AC50 [2]
CCCC[C@H]1C(=O)N(c2ccccc2)N(c2ccc(O)cc2)C1=O | 5.01 µM [falling, partial curve] | 7.94 µM [falling, partial curve]
O=C(COC(=O)c1ccc(O)cc1)Nc1ncc(Cl)cc1Cl | – | 0.0631 µM [rising, full curve, poor fit]
Cc1ccc(Cl)cc1N1CCN(C(=O)c2cccn3c(=O)c4cc(Cl)ccc4nc23)CC1 | 22.4 µM [falling, partial curve, poor fit] | 35.5 µM [falling, single point]
COc1cc(NC(=O)c2cccs2)c(OC)cc1NC(=O)CCC(=O)Nc1ccc2ncccc2c1 | 17.8 µM [falling, partial curve, poor fit] | 6.31 µM [falling, partial curve, poor fit]
CCc1ccc(NC(=O)c2ccc(F)c(S(=O)(=O)N(C)C3CCCCC3)c2)cc1 | 0.0224 µM [rising, full curve, poor fit] | –
NC(=O)COC(=O)/C=C/c1ccc(S(=O)(=O)N2CCCCCC2)cc1 | 0.0562 µM [falling, full curve] | 2.24 µM [falling, partial curve]
COc1ccc(OC)c(N(CC(=O)NC2CC2)S(=O)(=O)c2ccc(C)cc2)c1 | 22.4 µM [rising, single point] | –
CC(/C=N/NC(=O)c1cc(-c2ccc3ccccc3c2)n[nH]1)=C\c1ccco1 | 28.2 µM [rising, single point] | –
CCc1nc2ccccc2n(CC)c1=O | 5.62 µM [rising, single point] | –
O=C1CN(C(=O)/C=C/c2ccccc2F)c2ccccc2N1 | 5.62 µM [rising, single point] | 5.62 µM [rising, single point]
COc1ccc2c(c1)CCc1c(C(=O)N(C)c3ccccc3)noc1-2 | 0.00316 µM [falling, full curve, poor fit] | –
COc1cccc(C=NCCNC(=O)c2nonc2N)c1O | – | 35.5 µM [rising, single point]
Cc1cccc(C)c1-n1c(SCC(=O)Nc2ccc(C(=O)O)cc2)nnc1-c1cccc(S(=O)(=O)N(C)C)c1 | 0.447 µM [falling, partial curve, poor fit] | 0.01 µM [falling, full curve, poor fit]
O=C(Nc1ccc2ccccc2c1)c1ccc(NS(=O)(=O)c2ccc(Br)s2)cc1 | 35.5 µM [falling, single point] | –
Cc1ccc(Cl)cc1-n1ncc2c(NCCCn3ccnc3)ncnc21 | – | 0.1 µM [falling, full curve, poor fit]
COc1cc(/C=N\n2nnnc2N)ccc1OCc1ccc(F)cc1 | 0.141 µM [falling, full curve, poor fit] | –

Reformatted: two of the compounds above.
Compound	AC50 [1]	AC50 [2]
CCCC[C@H]1C(=O)N(c2ccccc2)N(c2ccc(O)cc2)C1=O	5.01 µM [falling, partial curve]	7.94 µM [falling, partial curve]
COc1cc(/C=N\n2nnnc2N)ccc1OCc1ccc(F)cc1	0.141 µM [falling, full curve, poor fit]	–
